Measured values published in PubChem BioAssay AID242 (DTP/NCI, 2004).
The list is a part of this screen's results and no random one: it gathers some chemical classes. Not every dose and run of a compound is shown. T/C is the treated group as % of the vehicle group. For survival time, this PubChem deposit counts one and a half times the control or more as active, and values a quarter to a half above the control carry no call in these data; other NCI protocols may use other cut-offs. Some entries show no survivor count and are marked so; the dose need not have been tolerated. Schedule codes are those of the source, read here as Q, the interval in days (D) or hours (H), X, the number of doses. Some doses were run more than once; the results are listed from low to high.

System: BDF1 mice, Lymphoma 8 ip, survival T/C
Assay: NCI In Vivo Anticancer Drug Screen. Data for tumor model Lymphoma 8 (intraperitoneal) in B6D2F1 (BDF1) mice
Details: T/C endpoint: survival time, mean or median, schedule: Q01DX010 (ip), vehicle: saline, higher T/C = longer survival
Experimental: The antitumor activity of compounds was measured in mice bearing transplantable tumors. Survival or tumor size were measured and the results are expressed as the measurement made in the treated group (T) divided by the measurement made in the vehicle treated control group (C). The tumor model used in this assay is Lymphoma 8 (intraperitoneal) in B6D2F1 (BDF1) mice

| SMILES | T/C (dose: 1.25 mg/kg/injection) | T/C (dose: 2.5 mg/kg/injection) | T/C (dose: 5.0 mg/kg/injection) | T/C (dose: 0.63 mg/kg/injection) | other results |
| --- | --- | --- | --- | --- | --- |
| ClCCNCCCl |  |  |  |  | T/C (dose: 18.8 mg/kg/injection): 118 % of control [survivor count not shown]; T/C (dose: 37.5 mg/kg/injection): 136 [survivor count not shown] and 154 % of control [survivor count not shown] |
| ClCCN(CCCl)Cc1nc2ccccc2[nH]1 | 96 % of control [survivor count not shown] | 96 [survivor count not shown] and 108 % of control [survivor count not shown] | 107 [survivor count not shown] and 133 % of control [survivor count not shown] |  | T/C (dose: 10.0 mg/kg/injection): 150 [survivor count not shown] and 157 % of control [survivor count not shown] |
| CC(C(=O)O)N(CCCl)CCCl (stereo not given) |  |  |  |  | T/C (dose: 0.5 mg/kg/injection): 133 [survivor count not shown] and 142 % of control [survivor count not shown]; T/C (dose: 1.0 mg/kg/injection): 120 [survivor count not shown] and 132 % of control [survivor count not shown]; T/C (dose: 2.0 mg/kg/injection): 153 [survivor count not shown] and 166 % of control [survivor count not shown]; T/C (dose: 4.0 mg/kg/injection): 200 % of control [survivor count not shown] |
| NC(Cc1cccc(N(CCCl)CCCl)c1)C(=O)O (stereo not given) | 125 % of control [survivor count not shown] | 145 % of control [survivor count not shown] | 91 % of control [survivor count not shown] | 108 % of control [survivor count not shown] |  |
| NC1CCCCC1.NP(=O)(O)N(CCCl)CCCl |  |  |  |  | T/C (dose: 15.6 mg/kg/injection): 103 % of control [survivor count not shown]; T/C (dose: 31.3 mg/kg/injection): 185 % of control [survivor count not shown] |
| O=C(O)CN(CCCl)CCCl | 125 [survivor count not shown] and 146 % of control [survivor count not shown] | 142 [survivor count not shown] and 154 % of control [survivor count not shown] | 95 [survivor count not shown] and 114 % of control [survivor count not shown] | 104 [survivor count not shown] and 114 % of control [survivor count not shown] |  |
